The text below walks through data of paper PMC5803212, “Supramolecular aptamer nano-constructs for receptor-mediated targeting and light-triggered release of chemotherapeutics into cancer cells”.

pKd: −log10 of the molar value. For part of these data: Negatives hold for the conditions tested. For part of these data: At least one verdict rests on a figure or table, not on a statement of the authors. For part of these data: For at least one entry, the source does not settle the construct or the ends of the probe.

The target in series [1] is cMet-Fc (HGFR ectodomain fused to human IgG1 Fc) (human) (UniProt P08581). The series is described as follows: competition filter binding. Conditions: SI names it as control competitor, text calls it non-binding variant, Supp Fig 9 legend lists only the L4 mutant; 1x PBS pH 7.4, 2 mM MgCl2, 0.1 mg/mL E. coli tRNA, 0.25 mg/mL BSA, 37 C, 30 min; ~25 fmol 32P-trCLN3, ~50 nM cMet, 25 uL, nitrocellulose filter; commercial protein; single-stranded DNA.

Series [2] shares this target. The series is described as follows: filter binding. The following applies: tracer in competition assay; 1x PBS pH 7.4, 2 mM MgCl2, 0.1 mg/mL E. coli tRNA, 0.25 mg/mL BSA, 37 C, 30 min; ~25 fmol 32P-trCLN3, ~50 nM cMet, 25 uL, nitrocellulose filter; commercial protein; label: 5'-32P; folded or branched DNA.
For series [3] the target is unchanged. Briefly: cited. The following applies: 1x PBS pH 7.4, 2 mM MgCl2, 0.1 mg/mL E. coli tRNA, 0.25 mg/mL BSA, 37 C, 30 min; ~25 fmol 32P-trCLN3, ~50 nM cMet, 25 uL, nitrocellulose filter; commercial protein; folded or branched DNA.

Turning to “TGGATGATAGCTCGGTCGGGGTGGATGGGTTGGCAAGTCT [trCLN3.mut]”, the binding result in series [1] is listed as “no binding”.

Turning to “TGGATGGTAGCTCGGTCGGGGTGGGTGGGTTGGCAAGTCT [32P-trCLN3]”, in series [2], the binding result is listed as “binds”.

For “TGGATGGTAGCTCGGTCGGGGTGGGTGGGTTGGCAAGTCT [trCLN3]”, the pKd (commonly the negative decadic logarithm of the Kd, by convention in mol/L) in series [3] is 7.42.
